Results from article PMC3316669.

biological target: T1, TorD with N-terminal His-tag (E. coli) (UniProt P36662); experiment: SPR; qualitative; His-tagged REMP held on a Ni-NTA chip to 1000 RU, pre-protein injected (100 or 200 nM shown; 20 to 400 nM for the chimeras), 60 s, 50 µl/min, 25°C; 10 mM HEPES, 150 mM NaCl, 50 µM EDTA, 0.005% P20, pH 7.4; both purified
T1 sequence: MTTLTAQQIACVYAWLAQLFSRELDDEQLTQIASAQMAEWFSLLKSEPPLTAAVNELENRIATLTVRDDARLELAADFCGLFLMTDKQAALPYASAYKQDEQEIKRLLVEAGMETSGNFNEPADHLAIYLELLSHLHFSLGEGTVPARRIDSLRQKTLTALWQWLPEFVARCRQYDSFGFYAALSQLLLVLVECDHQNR

binding | Substance
no binding (tested: 20 to 400 nM) | DDT-GFP (ssDmsA-GFP with the C-region of ssTorA) (E. coli) (domain or fragment)
no binding (tested: 20 to 400 nM) | DTD-GFP (ssDmsA-GFP with the H-region of ssTorA) (E. coli) (domain or fragment)
binds | DTT-GFP (ssTorA-GFP with the N-region of ssDmsA) (E. coli) (domain or fragment)
no binding (tested: 20 to 400 nM) | TDD-GFP (ssDmsA-GFP with the N-region of ssTorA) (E. coli) (domain or fragment)
binds weakly | TDT-GFP (ssTorA-GFP with the H-region of ssDmsA) (E. coli) (domain or fragment)
binds weakly | TTD-GFP (ssTorA-GFP with the C-region of ssDmsA) (E. coli) (domain or fragment)

No constants are given. Whether binding was seen depends on the method and setting. A result given as binding can be weak or reduced; the word gives no strength. Sequences can lack the tags named with a protein.
